From patent publication US20060127894A1, “Protein associated with cell growth, differentiation, and death” (Incyte Corporation, priority 2001, published 2006)
At least one compound was matched to its structure with a doubt left.

What was measured:
[1] = cited from earlier work
[2] = test system: SEQ ID NO:45 expression in C3A cells; test: Microarray expression analysis of steroid-treated versus untreated C3A cells; type: cell-based, human
Protocol: Total RNA is isolated from tissue samples using the guanidinium thiocyanate method and poly(A)^+ RNA is purified using the oligo-(dT) cellulose method. Each poly(A)^+ RNA sample is reverse transcribed using MMLV reverse-transcriptase, 0.05 pg/μl oligo-(dT) primer (21 mer), 1×first strand buffer, 0.03 units/μL RNase inhibitor, 500 μM dATP, 500 μM dGTP, 500 μM dTTP, 40 μM dCTP, 40 μM dCTP-Cy3 (BDS) or dCTP-Cy5 (Amersham Biosciences). The reverse transcription reaction is performed in a […] containing 200 ng poly(A)^+ RNA with GEMBRIGHT kits (Incyte). Specific control poly(A)+ RNAs are synthesized by in vitro transcription from non-coding yeast genomic DNA. After incubation at 37° C. for 2 hr, each reaction sample (one with Cy3 and another with Cy5 labeling) is treated with […] of 0.5M sodium hydroxide and incubated for 20 minutes at 85° C. to the stop the reaction and degrade the RNA. Samples are purified using two successive CHROMA SPIN 30 gel filtration spin columns (CLONTECH Laboratories, Inc. (CLONTECH), Palo Alto Calif.) and after combining, both reaction samples are ethanol precipitated using 1 ml of glycogen (1 mg/ml), 60 ml sodium acetate, and 300 ml of 100% ethanol. The sample is then dried to completion using a SpeedVAC (Savant Instruments Inc., Holbrook N.Y.) and resuspended in 14 μl 5×SSC/0.2% SDS.
Sequences of the present invention are used to generate array elements. Each array element is amplified from bacterial cells containing vectors with cloned cDNA inserts. PCR amplification uses primers complementary to the vector sequences flanking the cDNA insert. Array elements are amplified in thirty cycles of PCR from an initial quantity of 1-2 ng to a final quantity greater than 5 μg. Amplified array elements are then purified using […]-400 (Amersham Biosciences).
Hybridization reactions contain 9 μl of sample mixture consisting of 0.2 μg each of Cy3 and Cy5 labeled cDNA synthesis products in 5×SSC, 0.2% SDS hybridization buffer. The sample mixture is heated to 65° C. for 5 minutes and is aliquoted onto the microarray surface and covered with an 1.8 cm^2 coverslip. The arrays are transferred to a waterproof chamber having a cavity just slightly larger than a microscope slide. The chamber is kept at 100% humidity internally by the addition of 140 μl of 5×SSC in a comer of the chamber. The chamber containing the arrays is incubated for about 6.5 hours at 60° C. The arrays are washed for 10 min at 45° C. in a first wash buffer (1×SSC, 0.1% SDS), three times for 10 minutes each at 45° C. in a second wash buffer (0.1×SSC), and dried.
Reporter-labeled hybridization complexes are detected with a microscope equipped with an Innova 70 mixed gas 10 W laser (Coherent, Inc., Santa Clara Calif.) capable of generating spectral lines at 488 nm for excitation of Cy3 and at 632 nm for excitation of CyS. The excitation laser light is focused on the array using a 20× microscope objective (Nikon, Inc., Melville N.Y.). The slide containing the array is placed on a computer-controlled X-Y stage on the microscope and raster-scanned past the objective. The 1.8 cm×1.8 cm array used in the present example is scanned with a resolution of 20 micrometers.
A grid is superimposed over the fluorescence signal image such that the signal from each spot is centered in each element of the grid. The fluorescence signal within each element is then integrated to obtain a numerical value corresponding to the average intensity of the signal. The software used for signal analysis is the GEMTOOLS gene expression analysis program (Incyte).
The effects upon liver metabolism and hormone clearance mechanisms are important to understand the pharmacodynamics of a drug. The human C3A cell line is a clonal derivative of HepG2/C3 (hepatoma cell line, isolated from a person with liver tumor), which was selected for strong contact inhibition of growth. The use of a clonal population enhances the reproducibility of the cells. […]

[3] = test system: human umbilical vein endothelial cells (HUVECs); details: TNF-α-treated; cited from earlier work
[4] = dose 10 μM, 1 hour of treatment
[5] = dose 100 μM, 1 hour of treatment
[6] = dose 100 μM, 6 hours of treatment

For `C[C@@H]1C[C@H]2[C@@H]3CCC4=CC(=O)C=C[C@]4(C)[C@@]3(F)[C@@H](O)C[C@]2(C)[C@@]1(O)C(=O)CO` [Dexamethasone], which “potency relative to hydrocortisone” value ([1]; more potent than hydrocortisone) is on record?
The value was 20-30 times.

And the “potency relative to prednisone” value ([1]; more potent than prednisone)?
Its value is 5-7 times.

With `C[C@H]1C[C@H]2[C@@H]3CCC4=CC(=O)C=C[C@]4(C)[C@@]3(F)[C@@H](O)C[C@]2(C)[C@@]1(O)C(=O)CO` [betamethasone] as the compound, how does the “expression of SEQ ID NO:45 increased in drug-treated, as compared to untreated, C3A cells” value (“expression of SEQ ID NO:45 increased” for short) [2, 4] read?
Its value is “at least two-fold”.

What about the “expression of SEQ ID NO:45 increased” value [2, 5] of the same compound?
Its value is “at least two-fold”.

And the “expression of SEQ ID NO:45 increased” value ([2]; dose 100 μM, 3 hours of treatment)?
The value was “at least two-fold”.

And the “expression of SEQ ID NO:45 increased” value [2, 6]?
Its value is “at least two-fold”.

Which results are given for `CCCC1O[C@@H]2C[C@H]3[C@@H]4CCC5=CC(=O)C=C[C@]5(C)[C@H]4[C@@H](O)C[C@]3(C)[C@]2(C(=O)CO)O1` (stereo partly shown) [budesonide]?
expression of SEQ ID NO:45 increased in drug-treated, as compared to untreated, C3A cells ([2]; dose 1 μM, 1 hour of treatment): at least two-fold; expression of SEQ ID NO:45 increased in drug-treated, as compared to untreated, C3A cells ([2]; dose 1 μM, 3 hours of treatment): at least two-fold; expression of SEQ ID NO:45 increased in drug-treated, as compared to untreated, C3A cells [2, 4]: at least two-fold; expression of SEQ ID NO:45 increased in drug-treated, as compared to untreated, C3A cells ([2]; dose 10 μM, 3 hours of treatment): at least two-fold; expression of SEQ ID NO:45 increased in drug-treated, as compared to untreated, C3A cells [2, 5]: at least two-fold; expression of SEQ ID NO:45 increased in drug-treated, as compared to untreated, C3A cells [2, 6]: at least two-fold

Which “effect on TNF-α-induced increase in MCP-1 secretions” value [3] does the source give for `Cc1c(C)c2c(c(C)c1O)CCC(C)(COc1ccc(CC3SC(=O)NC3=O)cc1)O2` (stereo not shown) [Troglitazone] here?
The value was “significantly inhibited”.
